According to patent US10188674B2, “Parenteral formulations for administering macrolide antibiotics” (Cempra Pharmaceuticals, Inc., priority 2012, dated 2019):
Some entries share one result that the patent states for a list of compounds.

Experiment: Dynamic Precipitation Model (absorbance at 500 nm on infusion into blood surrogate)
Assay type: physicochemical
Settings: used as positive controls
Procedure: Dynamic Precipitation Model. The dynamic precipitation apparatus is shown in FIG. 1, and is also described in Johnson et al., (2003). The apparatus includes a predetermined distance, illustratively a 15 cm distance, between the tip of the injection needle and the UV flow cell, and three main components to simulate blood flow and different infusion rates of drug. Illustratively, a Cole-Palmer-Masterflex® 7520-00 peristaltic pump is used to direct the flow of blood surrogate at 5 mL/min. Illustratively, a Harvard Apparatus Precision Syringe Pump 22 is used to infuse drug formulations into the system at various injection rates. Illustratively, a Cary UV-50 Bio Spectrophotometer with a 1.00 cm flow cell is used to monitor absorbance as a measure of precipitation in the formulation-blood surrogate system. […] The spectrophotometer software (Cary UVWin) is set to read a constant absorbance, illustratively 500 nm, versus time. […] After the flow rate is confirmed at 5 mL/min, the spectrophotometer is set to record absorbance at 500 nm for 5-10 minutes, and injections are performed at different rates as specified. […] An absorbance at or above 0.05 is considered to be the threshold level for assessing precipitation having phlebitic potential.

Row | Compound | Absorbance
1 | CC[C@H]1OC(=O)[C@H](C)[C@@H](O[C@H]2C[C@@](C)(OC)[C@@H](O)[C@H](C)O2)[C@H](C)[C@@H](O[C@@H]2O[C@H](C)C[C@H](N(C)C)[C@H]2O)[C@](C)(O)C[C@@H](C)C(=O)[C@H](C)[C@@H](O)[C@]1(C)O [erythromycin-lactobionate, erythromycin lactobionate, reference compound] | < 0.003
2 | Azithromycin Citrate [Azitromycin citrate, reference compound] | < 0.003
